In paper PMC8170045:
Results are given in words; binding and its absence hold for the method and conditions named. In cells and extracts the contact can be indirect. Here binding means that the protein was enriched with, or labelled near, the bait; the list need not be complete. Tags and fused reporters may be left off the sequences shown.

The chains behind the UniProt entries cited, without tags or fusion partners. Where a name states a change or a piece, a line headed by the entry shows the natural chain unless it says otherwise.
UniProt P12814: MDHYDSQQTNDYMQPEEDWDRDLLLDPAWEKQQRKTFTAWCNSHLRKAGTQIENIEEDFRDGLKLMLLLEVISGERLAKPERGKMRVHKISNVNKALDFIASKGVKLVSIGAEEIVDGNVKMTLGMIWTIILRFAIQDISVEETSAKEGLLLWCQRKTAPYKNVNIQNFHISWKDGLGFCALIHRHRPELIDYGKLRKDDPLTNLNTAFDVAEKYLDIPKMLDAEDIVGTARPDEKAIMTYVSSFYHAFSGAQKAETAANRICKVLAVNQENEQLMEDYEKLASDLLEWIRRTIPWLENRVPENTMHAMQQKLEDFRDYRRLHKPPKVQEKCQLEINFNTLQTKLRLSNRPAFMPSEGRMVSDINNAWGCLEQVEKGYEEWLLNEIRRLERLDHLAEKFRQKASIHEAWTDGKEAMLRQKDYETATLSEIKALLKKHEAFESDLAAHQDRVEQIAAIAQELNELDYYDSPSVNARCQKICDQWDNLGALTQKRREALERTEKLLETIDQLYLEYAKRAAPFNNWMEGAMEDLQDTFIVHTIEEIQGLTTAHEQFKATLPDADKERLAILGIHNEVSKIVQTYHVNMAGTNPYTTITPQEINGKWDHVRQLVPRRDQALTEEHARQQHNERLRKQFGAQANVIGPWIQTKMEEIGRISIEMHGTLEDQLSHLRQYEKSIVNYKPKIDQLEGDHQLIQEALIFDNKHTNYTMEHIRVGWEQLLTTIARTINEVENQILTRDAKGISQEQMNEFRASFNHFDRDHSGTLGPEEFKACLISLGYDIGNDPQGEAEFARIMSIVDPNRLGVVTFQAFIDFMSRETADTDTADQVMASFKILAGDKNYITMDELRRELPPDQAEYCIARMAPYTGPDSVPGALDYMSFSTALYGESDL
UniProt P21333: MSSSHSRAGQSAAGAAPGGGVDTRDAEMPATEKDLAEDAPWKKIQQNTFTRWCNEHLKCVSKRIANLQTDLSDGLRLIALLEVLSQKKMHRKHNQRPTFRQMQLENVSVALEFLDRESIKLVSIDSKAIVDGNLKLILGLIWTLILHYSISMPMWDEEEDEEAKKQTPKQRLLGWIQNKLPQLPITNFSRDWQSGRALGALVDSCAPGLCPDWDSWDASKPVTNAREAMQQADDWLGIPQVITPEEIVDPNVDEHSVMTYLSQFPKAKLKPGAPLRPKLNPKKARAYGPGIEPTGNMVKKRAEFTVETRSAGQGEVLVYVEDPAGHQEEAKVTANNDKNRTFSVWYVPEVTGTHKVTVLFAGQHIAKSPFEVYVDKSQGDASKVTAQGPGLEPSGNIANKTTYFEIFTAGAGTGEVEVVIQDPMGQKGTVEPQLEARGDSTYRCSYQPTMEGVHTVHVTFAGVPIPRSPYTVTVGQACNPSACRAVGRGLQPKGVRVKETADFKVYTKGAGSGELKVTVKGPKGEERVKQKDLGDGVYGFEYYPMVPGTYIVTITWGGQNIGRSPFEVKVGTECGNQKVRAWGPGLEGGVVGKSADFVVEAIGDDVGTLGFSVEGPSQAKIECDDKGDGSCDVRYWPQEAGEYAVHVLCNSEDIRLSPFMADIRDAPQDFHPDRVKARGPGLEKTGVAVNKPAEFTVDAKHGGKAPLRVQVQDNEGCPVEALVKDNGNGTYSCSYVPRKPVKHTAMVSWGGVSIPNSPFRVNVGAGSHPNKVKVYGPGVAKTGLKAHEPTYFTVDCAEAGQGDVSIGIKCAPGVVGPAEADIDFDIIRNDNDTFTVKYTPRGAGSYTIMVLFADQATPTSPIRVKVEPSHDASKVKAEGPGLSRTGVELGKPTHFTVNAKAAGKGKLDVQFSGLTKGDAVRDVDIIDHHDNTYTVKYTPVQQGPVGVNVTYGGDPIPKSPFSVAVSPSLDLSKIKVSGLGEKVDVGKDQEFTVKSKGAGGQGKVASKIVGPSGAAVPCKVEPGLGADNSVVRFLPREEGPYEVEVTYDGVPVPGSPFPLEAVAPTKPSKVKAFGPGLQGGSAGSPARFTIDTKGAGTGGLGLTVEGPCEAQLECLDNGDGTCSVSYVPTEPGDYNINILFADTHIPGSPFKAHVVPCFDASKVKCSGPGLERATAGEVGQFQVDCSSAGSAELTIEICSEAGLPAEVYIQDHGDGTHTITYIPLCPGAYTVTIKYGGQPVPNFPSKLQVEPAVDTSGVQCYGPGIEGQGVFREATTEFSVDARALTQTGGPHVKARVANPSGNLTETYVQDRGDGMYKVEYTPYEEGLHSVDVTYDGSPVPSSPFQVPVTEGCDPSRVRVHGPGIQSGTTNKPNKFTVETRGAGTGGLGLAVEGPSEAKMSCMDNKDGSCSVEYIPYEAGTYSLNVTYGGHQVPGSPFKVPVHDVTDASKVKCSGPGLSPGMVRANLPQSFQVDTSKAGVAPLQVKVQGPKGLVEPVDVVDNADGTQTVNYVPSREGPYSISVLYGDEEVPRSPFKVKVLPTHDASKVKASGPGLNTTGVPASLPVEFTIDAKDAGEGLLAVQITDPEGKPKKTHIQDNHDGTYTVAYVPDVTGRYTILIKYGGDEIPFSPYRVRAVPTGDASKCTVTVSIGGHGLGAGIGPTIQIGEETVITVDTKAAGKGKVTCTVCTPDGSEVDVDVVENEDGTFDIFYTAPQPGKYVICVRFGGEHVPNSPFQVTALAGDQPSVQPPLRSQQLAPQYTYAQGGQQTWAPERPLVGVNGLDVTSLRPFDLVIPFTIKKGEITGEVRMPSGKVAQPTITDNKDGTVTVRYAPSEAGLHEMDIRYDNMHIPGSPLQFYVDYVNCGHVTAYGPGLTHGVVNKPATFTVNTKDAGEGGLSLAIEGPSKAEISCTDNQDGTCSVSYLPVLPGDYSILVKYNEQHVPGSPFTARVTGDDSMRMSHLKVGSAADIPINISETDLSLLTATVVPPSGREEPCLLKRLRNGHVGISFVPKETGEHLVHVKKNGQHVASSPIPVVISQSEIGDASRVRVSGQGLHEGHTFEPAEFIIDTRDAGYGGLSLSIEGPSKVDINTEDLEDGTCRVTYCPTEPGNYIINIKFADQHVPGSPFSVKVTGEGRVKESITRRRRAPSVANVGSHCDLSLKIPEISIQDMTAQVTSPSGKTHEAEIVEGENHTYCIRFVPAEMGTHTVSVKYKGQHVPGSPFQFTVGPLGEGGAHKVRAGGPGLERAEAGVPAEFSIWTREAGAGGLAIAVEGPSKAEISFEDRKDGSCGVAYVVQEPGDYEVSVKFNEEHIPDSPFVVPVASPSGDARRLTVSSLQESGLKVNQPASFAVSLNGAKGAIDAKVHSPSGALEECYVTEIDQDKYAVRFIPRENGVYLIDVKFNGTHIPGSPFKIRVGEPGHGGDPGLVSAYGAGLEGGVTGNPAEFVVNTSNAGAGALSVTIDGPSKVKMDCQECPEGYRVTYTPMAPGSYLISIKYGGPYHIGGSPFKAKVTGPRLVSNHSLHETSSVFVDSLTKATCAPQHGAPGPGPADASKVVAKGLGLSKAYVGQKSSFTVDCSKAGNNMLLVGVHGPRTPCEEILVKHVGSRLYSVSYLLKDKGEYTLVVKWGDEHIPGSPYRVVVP
UniProt O14950: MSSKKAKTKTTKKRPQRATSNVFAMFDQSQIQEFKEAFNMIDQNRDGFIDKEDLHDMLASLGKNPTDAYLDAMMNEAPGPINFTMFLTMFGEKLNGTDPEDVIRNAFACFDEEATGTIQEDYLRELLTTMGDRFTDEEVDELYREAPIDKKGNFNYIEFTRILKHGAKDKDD
UniProt P05556: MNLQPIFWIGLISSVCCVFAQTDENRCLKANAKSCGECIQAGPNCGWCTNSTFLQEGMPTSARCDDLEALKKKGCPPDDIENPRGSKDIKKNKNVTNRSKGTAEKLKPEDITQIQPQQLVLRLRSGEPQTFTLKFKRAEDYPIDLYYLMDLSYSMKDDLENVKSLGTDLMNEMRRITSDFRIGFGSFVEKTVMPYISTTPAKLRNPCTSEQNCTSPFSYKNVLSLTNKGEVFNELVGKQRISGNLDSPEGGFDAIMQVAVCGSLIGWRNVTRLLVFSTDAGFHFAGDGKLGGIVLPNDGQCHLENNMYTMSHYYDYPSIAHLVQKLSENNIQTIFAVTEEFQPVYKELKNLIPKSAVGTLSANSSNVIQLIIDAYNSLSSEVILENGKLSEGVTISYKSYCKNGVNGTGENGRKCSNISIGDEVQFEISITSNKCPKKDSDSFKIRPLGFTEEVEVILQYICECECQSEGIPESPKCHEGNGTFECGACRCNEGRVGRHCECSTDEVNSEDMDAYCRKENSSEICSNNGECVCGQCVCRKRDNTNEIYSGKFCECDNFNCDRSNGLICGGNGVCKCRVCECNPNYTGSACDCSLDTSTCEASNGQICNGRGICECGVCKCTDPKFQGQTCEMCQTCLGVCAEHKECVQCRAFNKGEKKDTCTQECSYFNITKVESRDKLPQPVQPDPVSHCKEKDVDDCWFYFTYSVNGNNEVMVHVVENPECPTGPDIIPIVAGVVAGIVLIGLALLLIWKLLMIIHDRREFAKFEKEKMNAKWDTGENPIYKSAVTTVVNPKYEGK

T1: DCBLD2 with double label of Flag-strep (UniProt Q96PD2)
T1 sequence: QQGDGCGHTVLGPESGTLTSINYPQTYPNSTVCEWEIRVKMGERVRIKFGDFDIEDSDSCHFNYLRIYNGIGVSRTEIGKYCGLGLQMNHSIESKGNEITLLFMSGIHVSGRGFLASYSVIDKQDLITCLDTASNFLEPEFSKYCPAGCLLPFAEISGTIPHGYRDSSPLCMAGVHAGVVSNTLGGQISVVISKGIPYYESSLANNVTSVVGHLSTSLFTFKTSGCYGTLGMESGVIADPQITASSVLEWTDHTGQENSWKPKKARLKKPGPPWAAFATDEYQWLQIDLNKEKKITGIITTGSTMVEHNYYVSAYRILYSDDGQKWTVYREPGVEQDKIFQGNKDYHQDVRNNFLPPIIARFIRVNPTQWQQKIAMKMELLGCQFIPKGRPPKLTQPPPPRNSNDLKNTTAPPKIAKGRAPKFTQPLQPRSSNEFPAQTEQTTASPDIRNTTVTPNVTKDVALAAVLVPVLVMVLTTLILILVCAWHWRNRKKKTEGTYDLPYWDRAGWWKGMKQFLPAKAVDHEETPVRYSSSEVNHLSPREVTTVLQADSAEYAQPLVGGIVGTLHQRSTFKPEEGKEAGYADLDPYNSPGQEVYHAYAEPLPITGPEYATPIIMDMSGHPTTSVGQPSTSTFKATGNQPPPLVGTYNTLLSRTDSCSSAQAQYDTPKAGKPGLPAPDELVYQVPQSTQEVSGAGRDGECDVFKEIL

B1: SHC1 (protein, UniProt P29353 1-583)
chain: MDLLPPKPKYNPLRNESLSSLEEGASGSTPPEELPSPSASSLGPILPPLPGDDSPTTLCSFFPRMSNLRLANPAGGRPGSKGEPGRAADDGEGIVGAAMPDSGPLPLLQDMNKLSGGGGRRTRVEGGQLGGEEWTRHGSFVNKPTRGWLHPNDKVMGPGVSYLVRYMGCVEVLQSMRALDFNTRTQVTREAISLVCEAVPGAKGATRRRKPCSRPLSSILGRSNLKFAGMPITLTVSTSSLNLMAADCKQIIANHHMQSISFASGGDPDTAEYVAYVAKDPVNQRACHILECPEGLAQDVISTIGQAFELRFKQYLRNPPKLVTPHDRMAGFDGSAWDEEEEEPPDHQYYNDFPGKEPPLGGVVDMRLREGAAPGAARPTAPNAQTPSHLGATLPVGQPVGGDPEVRKQMPPPPPCPGRELFDDPSYVNVQNLDKARQAVGGAGPPNPAINGSAPRDLFDMKPFEDALRVPPPPQSVSMAEQLRGEPWFHGKLSRREAEALLQLNGDFLVRESTTTPGQYVLTGLQSGQPKHLLLVDPEGVVRTKDHRFESVSHLISYHMDNHLPIISAGSELCLQQPVERKL

Target: T1, DCBLD2 with double label of Flag-strep
Assay: affinity purification with mass spectrometry; TAP-MS: Flag-strep DCBLD2 overexpressed in HCT116 by lentivirus; lysate purified in two steps by streptactin resin and anti-flag antibody; eluates digested with trypsin, LC-MS/MS; proteins of the control group subtracted

binding, binds:
ACTN1 (from UniProt P12814 1-892)
FLNA (from UniProt P21333 1-2647)
MYL12B (from UniProt O14950 1-172)
ITGB1 (from UniProt P05556 21-798)
B1
